{"source": "patent US20210052565A1", "about": "“USE OF PANTOPRAZOLE IN PREVENTION AND TREATMENT OF LIVER FIBROSIS” (priority 2019, published 2021)", "key": {"[1]": {"test_system": "hepatic stellate cells LX2", "experiment": "LX2 cells treated with TGFβ for 48 h and then with PPZ for 24 h, protein expression by Western Blot", "type": "cell-based, human", "conditions": "TGFβ 48 h, then PPZ 10-320 μM for 24 h"}, "[2]": {"test_system": "carbon tetrachloride-induced liver fibrosis in mice", "experiment": "Deposition of collagen fibers in liver tissue by Masson and Sirius Red staining, carbon tetrachloride-induced liver fibrosis in mice", "type": "in vivo, mice (male C57BL6)", "conditions": "PPZ 1-10 mg/kg i.p. once every 12 hours, 6 weeks, CCl4 mice"}, "[3]": {"test_system": "carbon tetrachloride-induced liver fibrosis in mice", "experiment": "Liver damage by liver histology HE staining in mice with carbon tetrachloride-induced liver fibrosis", "type": "in vivo, mice (male C57BL6)", "conditions": "CCl4 mice"}, "[4]": {"test_system": "carbon tetrachloride-induced liver fibrosis in mice", "experiment": "Western Blot of liver fibrosis molecular markers in liver tissue, carbon tetrachloride-induced liver fibrosis in mice", "type": "in vivo, mice (male C57BL6)", "conditions": "PPZ 1-10 mg/kg i.p., 6 weeks, CCl4 mice"}, "[5]": {"test_system": "hepatic stellate cells LX2", "experiment": "LX2 cells pretreated with PPZ for 30 min and then treated with TGFβ for 24 h, protein expression by Western Blot", "type": "cell-based, human", "conditions": "PPZ 10-320 μM pretreatment 30 min, then TGFβ 24 h"}}, "note": "For at least one compound, name, drawing or mass did not settle the structure.", "data": [{"compound": "COc1ccnc(C[S+]([O-])c2nc3ccc(OC(F)F)cc3[nH]2)c1OC", "note": "(stereo not drawn) [PPZ, pantoprazole]", "values": [{"measurement": "expression of COL1A1 in LX2 cells", "setting": "[1]", "value": "decreased the expression of these extracellular matrix proteins in a dosage-dependent manner"}, {"measurement": "expression of fibronectin in LX2 cells", "setting": "[1]", "value": "decreased the expression of these extracellular matrix proteins in a dosage-dependent manner"}, {"measurement": "expression of α-SMA in LX2 cells", "setting": "[1]", "value": "decreased the expression of these extracellular matrix proteins in a dosage-dependent manner"}, {"measurement": "collagen fibers in liver tissue, Masson staining", "setting": "[2]", "value": "inhibited the increase of collagen fibers in liver tissue in a dosage-dependent manner"}, {"measurement": "collagen fibers in liver tissue, Sirius Red staining", "setting": "[2]", "value": "inhibited the increase of collagen fibers in liver tissue in a dosage-dependent manner"}, {"measurement": "liver histology (HE staining): liver cell cords and hepatic lobules", "setting": "[3]; PPZ groups of 5 mg/kg and 10 mg/kg i.p. once every 12 hours, 6 weeks", "value": "normal liver cell cords and hepatic lobules could be seen"}, {"measurement": "liver damage (HE staining)", "setting": "[3]; all PPZ groups (1, 2, 5, 10 mg/kg i.p. once every 12 hours, 6 weeks)", "value": "liver damage was alleviated to varying degrees"}, {"measurement": "expression of COL1A1 in liver tissue", "setting": "[4]", "value": "inhibited the expression of TGFβR1, α-SMA, COL1A1 and fibronectin in a dosage-dependent manner"}, {"measurement": "expression of E-cadherin in liver tissue", "setting": "[4]", "value": "increased the expression of E-cadherin"}, {"measurement": "expression of TGFβR1 in liver tissue", "setting": "[4]", "value": "inhibited the expression of TGFβR1, α-SMA, COL1A1 and fibronectin in a dosage-dependent manner"}, {"measurement": "expression of fibronectin in liver tissue", "setting": "[4]", "value": "inhibited the expression of TGFβR1, α-SMA, COL1A1 and fibronectin in a dosage-dependent manner"}, {"measurement": "expression of α-SMA in liver tissue", "setting": "[4]", "value": "inhibited the expression of TGFβR1, α-SMA, COL1A1 and fibronectin in a dosage-dependent manner"}, {"measurement": "increased expression of COL1A1 caused by TGFβ in LX2 cells", "setting": "[5]", "value": "inhibited the increased expression of α-SMA, COL1A1 and fibronectin caused by TGFβ in a dosage-dependent manner"}, {"measurement": "increased expression of fibronectin caused by TGFβ in LX2 cells", "setting": "[5]", "value": "inhibited the increased expression of α-SMA, COL1A1 and fibronectin caused by TGFβ in a dosage-dependent manner"}, {"measurement": "increased expression of α-SMA caused by TGFβ in LX2 cells", "setting": "[5]", "value": "inhibited the increased expression of α-SMA, COL1A1 and fibronectin caused by TGFβ in a dosage-dependent manner"}]}]}
